PubChem BioAssay AID2685 (National Center for Advancing Translational Sciences (NCATS), 2010)
The other results are listed elsewhere or left out. These are further read-outs of the screen, such as a control signal, another cell line or another target. No call is given for them. Compounds called inactive in the main read-out are mostly missing here. Potencies come from curve fits of mixed quality, noted in brackets.

Experiment: qHTS Assay for Lipid Storage Modulators in Drosophila S3 Cells;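 for cell number change: cells counted by Cell Tracker Red CMTPX staining in the red channel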
Details: BODIPY lipid droplet fluorescence, 18-24 h; for cell number change: measured here: cell count max response, cells fed with added oleic acid
In short: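 Drosophila S3 cells got compounds at several concentrations plus oleic acid (400 uM solution). Laser-scanning cytometry with 488 nm excitation read lipid droplets at 500-530 nm and cells at 575-640 nm. Percent activity was relative to 20 uM Triacsin C.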

[1] = measured here: lipid fluorescence (Fed channel) AC50, cells fed with added oleic acid
[2] = measured here: cell number channel AC50, cells fed with added oleic acid

SMILES | cell number change [%] | AC50 [1] | AC50 [2]
Cc1sc2nc(C)n(/N=C/c3ccccc3O)c(=O)c2c1C | 5.22 | 1.64 µM [falling, partial curve] | 
O=C(CN1C(=O)c2cccnc2Oc2ccc(Cl)cc21)N1CCCC1 | -26.4 | 18.4 µM [falling, partial curve, poor fit] | 
Cc1ccc(CCN2CCN=C2N(C)C)cc1 | 8.98 |  | 2.31 µM [rising, partial curve, poor fit]
COC(=O)c1cc(-c2c(C)oc3cc(OC(C)C)ccc3c2=O)c(C)o1 | -23 | 0.164 µM [rising, full curve] | 
O=[N+]([O-])c1ccc(Oc2cccc3cccnc23)c([N+](=O)[O-])c1 |  | 20.6 µM [falling, single point] | 
COc1ccc2cc(C(=O)N(C)CC(=O)Nc3ccccc3Br)ccc2c1 | 38.1 |  | 9.2 µM [rising, partial curve, poor fit]
CCN(CC)S(=O)(=O)c1ccc(Cl)c(NC(=O)COC(=O)c2ccc(O)cc2)c1 | 16.5 | 18.4 µM [falling, single point] | 
COc1ccc(-n2c(=O)c3ccccc3n(CC(=O)Nc3cccc(OC)c3)c2=O)cc1 | 41.9 |  | 
Cc1nn(Cc2cccc3ccccc23)c(C)c1NC(=O)c1cccnc1 | 38 | 1.03 µM [rising, full curve] | 2.06 µM [rising, partial curve, poor fit]
CSc1ccc(S(=O)(=O)NCC(=O)OCC(=O)N2CCCCC2C)cc1[N+](=O)[O-] (stereo not given) | -75 |  | 9.2 µM [falling, partial curve]
O=C1CCN(Cc2ccccc2)CCN1[C@H](CSc1ccccc1)Cc1ccccc1 | 14.1 | 0.731 µM [rising, full curve] | 0.82 µM [rising, full curve]
Cc1cc(C)n2nc(SCC(=O)c3cc(C)n(-c4cc(C)on4)c3C)nc2n1 | -27.3 | 1.3 µM [falling, full curve, poor fit] | 1.46 µM [falling, full curve, poor fit]
COc1ccccc1-c1cc(C(F)(F)F)nc(S(=O)(=O)CCCC(=O)N2CCCCC2C)n1 (stereo not given) | -53.7 | 20.6 µM [falling, partial curve] | 18.4 µM [falling, partial curve, poor fit]
N#Cc1ccc(/C=C/C(=O)c2ccco2)cc1 | -2.34 | 29.1 µM [falling, single point] | 
CCCCCN(C(=O)CCC(=O)OCC(=O)Nc1cccc(CC)c1)c1c(N)n(CCCC)c(=O)[nH]c1=O | 36.4 |  | 29.1 µM [rising, single point]
O=C1c2ccccc2C(=O)N1CC1c2ccccc2CCN1S(=O)(=O)c1cnc[nH]1 (stereo not given) | -4.8 | 6.51 µM [falling, single point] | 0.651 µM [falling, partial curve, poor fit]
COc1ccc(C2Nc3ccccc3C(=O)N2c2ccc(C)cc2)cc1Cn1nnc2ccccc21 (stereo not given) | -23.1 | 6.51 µM [falling, single point] | 4.11 µM [falling, full curve, poor fit]
COc1ccc(CN2C(=O)CSC2c2ccccn2)cc1 (stereo not given) | 25.8 | 0.0231 µM [rising, full curve, poor fit] | 
Cc1ccc(S(=O)(=O)CCC(=O)OCc2ccccc2F)cc1 | 2.46 |  | 6.51 µM [falling, single point]
Cc1ccc(NC(=O)C(C)c2ccc([N+](=O)[O-])cc2)cc1Cl (stereo not given) | -23 | 29.1 µM [falling, single point] | 
O=C(NCCCn1ccnc1)/C(=C\c1cccs1)NC(=O)c1cccs1 | 15.6 | 4.61 µM [rising, partial curve, poor fit] | 
O=C(Nc1ccccc1)c1ccccc1OS(=O)(=O)c1ccccc1 | -23 | 1.16 µM [rising, partial curve] | 
Oc1cccc(Oc2ncc(C(F)(F)F)cc2Cl)c1 | -16.6 |  | 
COc1cc(NC(=S)NC(=O)c2ccc(C(C)(C)C)cc2)ccc1NC(=O)c1cccs1 | 4.15 |  | 
O=C(Cc1c(F)cccc1Cl)N1CCN(S(=O)(=O)c2cccs2)CC1 | -6.87 | 0.092 µM [falling, full curve, poor fit] | 
CC(=O)Oc1ccc2nc(/C=C/c3ccc(C=O)cc3)oc(=O)c2c1 | -11.6 |  | 
CN(CCc1ccccn1)S(=O)(=O)c1ccc(F)cc1 | -25.2 | 18.4 µM [falling, single point] | 0.58 µM [falling, full curve, poor fit]

By substructure, the compounds so far with an NH in an aromatic ring
SMILES | cell number change [%] | AC50 [1] | AC50 [2]
CCCCCN(C(=O)CCC(=O)OCC(=O)Nc1cccc(CC)c1)c1c(N)n(CCCC)c(=O)[nH]c1=O | 36.4 |  | 29.1 µM [rising, single point]
O=C1c2ccccc2C(=O)N1CC1c2ccccc2CCN1S(=O)(=O)c1cnc[nH]1 (stereo not given) | -4.8 | 6.51 µM [falling, single point] | 0.651 µM [falling, partial curve, poor fit]

Going on with the list.

SMILES | cell number change [%] | AC50 [1] | AC50 [2]
CCC1Sc2ccc(S(=O)(=O)CCC(=O)NC3CCCCCC3)cc2NC1=O (stereo not given) | -22.6 | 29.1 µM [falling, single point] | 
O=C(OCC(=O)N1CCCCCC1)c1n[nH]c(=O)c2ccccc12 | -11.3 | 29.1 µM [falling, single point] | 6.51 µM [falling, single point]
Cc1ccc(C(C(=O)NC2CCCCC2)N(C(=O)Cc2c[nH]c3ccccc23)c2ccccc2C)o1 (stereo not given) | -8.8 | 6.51 µM [falling, partial curve] | 
Cc1nc(N)ncc1-c1ccc2c(c1)OCO2 | 28.2 | 5.17 µM [rising, full curve] | 
O=c1cc(CN2CCN(Cc3ccccc3)CC2)c2ccc(O)c(O)c2o1 |  | 29.1 µM [falling, single point] | 
COc1ccc(OC)c(N(CC(=O)NCc2cccnc2)S(C)(=O)=O)c1 | 7.54 | 9.2 µM [rising, partial curve, poor fit] | 
COc1ccc(N(CCC(=O)O)S(=O)(=O)c2ccc(C)c(C)c2)cc1 | -61.5 | 5.8 µM [falling, full curve] | 6.51 µM [falling, full curve]
Cc1cc(Cl)c(OCCCSc2nc(C)cc(=O)[nH]2)c(Br)c1 | -33.2 | 1.46 µM [falling, partial curve, poor fit] | 25.9 µM [falling, single point]
COc1cc(C(=O)OCc2ccc(C)cc2)cc(NC(=O)c2cccs2)c1OC |  | 29.1 µM [falling, partial curve, poor fit] | 0.651 µM [rising, single point]
O=C(NC1=NCCS1)c1ccc(-c2ccc(Cl)cc2)o1 |  | 6.51 µM [rising, single point] | 2.31 µM [rising, partial curve]
NC1=NC2(CCCC2)n2c(nc3ccccc32)N1 | -31.9 | 25.9 µM [falling, partial curve, poor fit] | 18.4 µM [falling, single point]
Cc1cc(NC(=O)C(C)SCC(=O)N(C)CC(=O)Nc2ccccc2Br)no1 (stereo not given) |  | 29.1 µM [rising, single point] | 
COc1cccc(CNC(=O)CCCC(=O)Nc2cccc([N+](=O)[O-])c2)c1 | 6.59 | 29.1 µM [falling, single point] | 
O=C(N/N=C/c1ccc(Cl)cc1)Nc1ccccc1 | -49.1 | 29.1 µM [falling, single point] | 23.1 µM [falling, single point]
Cc1cc(C(=O)CSc2ccccc2)cc(C)c1O | 12.1 | 29.1 µM [rising, single point] | 
CCSc1nnc(NC(=O)C2CC2c2ccccc2)s1 (stereo not given) | -56.1 | 16.4 µM [falling, single point] | 29.1 µM [falling, single point]
Cc1c(Cl)cccc1NC(=O)c1ccc(-n2ccnc2)nc1 |  |  | 6.51 µM [rising, single point]
COc1cc(OC)cc(OC(=O)C2CCN(C3=NS(=O)(=O)c4ccccc43)CC2)c1 | -50.6 | 20.6 µM [falling, single point] | 29.1 µM [falling, single point]
COc1cc(OC)cc(C(=O)NNC(=O)c2cc3c(s2)CCCC3)c1 | -3.33 | 0.0058 µM [falling, full curve, poor fit] | 
C=CS(=O)(=O)c1sc(Cl)c(N2CCOCC2)c1[N+](=O)[O-] | -64.8 | 13 µM [falling, partial curve] | 11.6 µM [falling, partial curve]
CSc1ccc(S(=O)(=O)Nc2ccc(N3CCOCC3)c(Cl)c2)cc1 | -7.34 | 7.31 µM [rising, partial curve] | 
COc1ccc(NC(=O)Cc2c(C(=O)O)n(C)c3ccccc23)cc1OC | 18.8 | 0.0291 µM [rising, full curve, poor fit] | 0.00731 µM [rising, full curve, poor fit]
O=C1ON=C(c2ccccc2[N+](=O)[O-])/C1=C/c1cccc([N+](=O)[O-])c1O | 17.5 | 5.8 µM [rising, single point] | 
Cc1cc(N2CCCC2)c(F)cc1/C=C\[N+](=O)[O-] | -48.5 | 4.11 µM [falling, partial curve] | 5.8 µM [falling, partial curve]
Cc1[nH]c(=S)c(C#N)c(-c2ccccc2)c1C(=O)Nc1ccccc1 |  | 32.6 µM [falling, partial curve] | 
O=C(CN1CCCCCCC1)Nc1ccc(Cl)cc1Cl |  |  | 1.84 µM [rising, single point]
Cc1noc(NS(=O)(=O)c2ccc(N/C=C/C(=O)c3ccccc3)cc2)c1C | 26.1 | 6.51 µM [rising, single point] | 
